Where two headings read alike, the source gives them in different places. Results are given in words; binding and its absence hold for the method and conditions named. Binding can be weak; no strength is given.
How the values were obtained:
Test in all cases: cryo-EM structure
[1] = target: alpha-tubulin (bovine brain), subunit in the microtubule lattice (bovine)
[2] = target: Microtubule lattice of bovine brain alpha/beta-tubulin heterodimers (bovine)
[3] = target: beta-tubulin (bovine brain), subunit in the microtubule lattice (bovine)
[4] = target: alpha-tubulin (bovine brain), subunit in the microtubule lattice (bovine); remark: listed apart in the source
[5] = target: beta-tubulin (bovine brain), subunit in the microtubule lattice (bovine); remark: listed apart in the source
[6] = target: Microtubule lattice of bovine brain alpha/beta-tubulin heterodimers (bovine); remark: listed apart in the source

binding [1]: binds
binding [2]: binds
binding [3]: binds
binding [4]: binds
binding [5]: binds
binding [6]: binds
B1: Doublecortin (DCX), human isoform 2, wild-type (protein, UniProt O43602-2 1-360)
chain: MELDFGHFDERDKTSRNMRGSRMNGLPSPTHSAHCSFYRTRTLQALSNEKKAKKVRFYRNGDRYFKGIVYAVSSDRFRSFDALLADLTRSLSDNINLPQGVRYIYTIDGSRKIGSMDELEEGESYVCSSDNFFKKVEYTKNVNPNWSVNVKTSANMKAPQSLASSNSAQARENKDFVRPKLVTIIRSGVKPRKAVRVLLNKKTAHSFEQVLTDITEAIKLETGVVKKLYTLDGKQVTCLHDFFGDDDVFIACGPEKFRYAQDDFSLDENECRVMKGNPSATAGPKASPTPQKTSAKSPGPMRRSKSPADSANGTSSSQLSTPKSKQSPISTPTSPGSLRKHKDLYLPLSLDDSDSLGDSM

From doi:10.1101/808899
